PubChem BioAssay AID504791, Drosophila RNAi Screening Center – 2011
The screen tested about 23,000 reagents; this is a random part of those with a known target gene and a result. Of all reagents, 199 (0.86%) were called active. 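Plate-scaled ratios behind the calls are not deposited; printed light signals are raw; many rows marked increased or decreased are still called inactive.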 Not stated in the record: the direction of the score.

- Purpose: 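Genes whose knock-down strengthens or weakens small-RNA reporter silencing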 (primary screen)
- Cells: Drosophila S2-derived reporter cells
- Reagent: long dsRNA against Drosophila genes, about 150-250 ng dsRNA per well (siRNA assay); about 80-120 ng (miRNA assay)
- Duration: about 5 days (siRNA assay); about 4 days (miRNA assay)
- Conditions: copper sulfate induction of reporters: 25 µM (siRNA assay); 200 mM stated (miRNA assay), 1-2 days before reading
- Detection: 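Per-well ratio of Renilla over firefly light, expressed relative to that plate's average ratio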
- Units: stable assay Renilla, run 1 in luminescence; stable assay firefly, run 1 in luminescence
- Call rule: 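First-pass picks had plate-scaled ratios over 1.5 for the siRNA assay, over 1.6 for the miRNA assay, or under 0.6; two distinct dsRNAs had to score alike on retest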

With knock-down of CG42694 [DRSC03955] the results were stable assay Renilla, run 1 = 4691; stable assay firefly, run 1 = 2.42e5; inactive.
For CG15344 (retired record) [DRSC18029] the deposit lists stable assay Renilla, run 1 = 5627; stable assay firefly, run 1 = 2.63e5; inactive.
Against CG31407 [DRSC12761], the entry reads stable assay Renilla, run 1 = 6136; stable assay firefly, run 1 = 4.35e5; inactive.
After knock-down of CG33177 [DRSC19949] the results were stable assay Renilla, run 1 = 4292; stable assay firefly, run 1 = 3.67e5; inactive.
Knock-down of tRNA:Leu-CAA-2-3 [DRSC13633] gave: stable assay Renilla, run 1 = 5750; stable assay firefly, run 1 = 4.43e5; inactive.
With knock-down of mIF3 [DRSC06290], the screen gave stable assay Renilla, run 1 = 6947; stable assay firefly, run 1 = 3.48e5; inactive.
Knock-down of Pitslre [DRSC11874] resulted in: stable assay Renilla, run 1 = 12124; stable assay firefly, run 1 = 4.46e5; inactive.
With knock-down of Pitslre [DRSC23346], the record shows stable assay Renilla, run 1 = 5275; stable assay firefly, run 1 = 3.49e5; inactive.

Limited to “stable assay firefly, run 1” (2 entries from above):
tRNA:Leu-CAA-2-3 [DRSC13633] = 4.43e5
mIF3 [DRSC06290] = 3.48e5

The list goes on.
After knock-down of CG14237 [DRSC14731] the results were stable assay Renilla, run 1 = 7134; stable assay firefly, run 1 = 4.19e5; inactive.
Against CG14237 [DRSC23239], the values are stable assay Renilla, run 1 = 4275; stable assay firefly, run 1 = 3.29e5; inactive.
Against CG8366 [DRSC07153], the values are stable assay Renilla, run 1 = 6775; stable assay firefly, run 1 = 5.08e5; inactive.
Against CG31468 [DRSC13637] the deposit lists stable assay Renilla, run 1 = 7323; stable assay firefly, run 1 = 6.83e5; inactive.
